Paper PMC6260752
Results are given in words; binding and its absence hold for the method and conditions named. Binding seen in cells or lysates may run through a third protein. Some results given as binding are weak or reduced against the parent protein; the word gives no strength.

Chains of the proteins cited; added tags and fusions are not shown. Residues count along the entry.
UniProt P17181, residues 28-557: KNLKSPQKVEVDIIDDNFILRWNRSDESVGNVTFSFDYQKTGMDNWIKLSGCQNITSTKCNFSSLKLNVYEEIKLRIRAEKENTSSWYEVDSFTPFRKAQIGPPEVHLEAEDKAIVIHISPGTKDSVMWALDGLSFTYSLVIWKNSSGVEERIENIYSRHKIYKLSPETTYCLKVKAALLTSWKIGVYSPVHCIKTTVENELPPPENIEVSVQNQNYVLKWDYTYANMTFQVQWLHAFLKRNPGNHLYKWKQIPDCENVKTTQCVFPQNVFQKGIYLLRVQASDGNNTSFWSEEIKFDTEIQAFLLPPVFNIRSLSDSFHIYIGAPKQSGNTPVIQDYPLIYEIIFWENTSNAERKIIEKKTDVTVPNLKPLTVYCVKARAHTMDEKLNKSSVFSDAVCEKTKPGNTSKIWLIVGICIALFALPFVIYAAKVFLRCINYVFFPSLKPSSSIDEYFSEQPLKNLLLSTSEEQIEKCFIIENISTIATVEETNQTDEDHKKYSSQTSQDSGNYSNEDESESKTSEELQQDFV
UniProt P41279: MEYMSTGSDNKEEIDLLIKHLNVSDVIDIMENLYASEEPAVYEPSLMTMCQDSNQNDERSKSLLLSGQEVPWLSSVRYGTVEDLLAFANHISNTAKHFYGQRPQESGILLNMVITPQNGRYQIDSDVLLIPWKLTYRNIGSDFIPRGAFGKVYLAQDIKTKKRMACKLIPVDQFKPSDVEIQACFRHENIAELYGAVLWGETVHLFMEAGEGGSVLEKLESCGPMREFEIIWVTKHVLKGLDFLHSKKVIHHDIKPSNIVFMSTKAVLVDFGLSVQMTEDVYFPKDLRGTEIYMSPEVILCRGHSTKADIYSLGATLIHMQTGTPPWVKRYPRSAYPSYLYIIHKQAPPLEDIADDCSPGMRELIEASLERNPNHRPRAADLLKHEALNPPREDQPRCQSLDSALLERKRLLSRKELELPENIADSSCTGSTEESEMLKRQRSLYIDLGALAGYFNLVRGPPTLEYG

Experiments:
[1] = target: T1, Type I interferon receptor 2 (IFNAR2) (human (endogenous in T24)) (UniProt P48551); assay: co-IP; T24 cell extracts precleared with protein A/G agarose, incubated with IFNAR2 or IFNAR1 antibodies overnight at 4 °C, then protein A/G agarose 2 h at 4 °C; western blot; cells treated with IFN-α (1 × 10^4 U/mL) for specific time points, or with TPL2i (2 μM), PD98059 (40 μM) or roflumilast (1 μM)
T1 sequence: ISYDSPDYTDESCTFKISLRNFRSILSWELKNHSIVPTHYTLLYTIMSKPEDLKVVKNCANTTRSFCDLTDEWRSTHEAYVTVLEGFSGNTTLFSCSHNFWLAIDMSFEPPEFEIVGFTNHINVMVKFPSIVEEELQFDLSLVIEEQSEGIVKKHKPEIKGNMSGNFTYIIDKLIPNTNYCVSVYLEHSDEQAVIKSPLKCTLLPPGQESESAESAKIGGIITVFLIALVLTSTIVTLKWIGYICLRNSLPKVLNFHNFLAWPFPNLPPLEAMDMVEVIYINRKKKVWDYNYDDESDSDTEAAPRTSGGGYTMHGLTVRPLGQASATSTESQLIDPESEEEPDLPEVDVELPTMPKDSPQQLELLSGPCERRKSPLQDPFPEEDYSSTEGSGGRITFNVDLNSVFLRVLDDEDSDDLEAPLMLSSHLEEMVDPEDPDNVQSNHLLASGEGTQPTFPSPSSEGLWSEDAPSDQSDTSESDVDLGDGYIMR

[2] = target: Type I interferon receptor 1 (IFNAR1) (human (endogenous in T24)) (UniProt P17181); assay: as above

Row | Substance | binding [1] | binding [2]
1 | phosphorylated TPL2 (pTPL2, Ser400) (from UniProt P41279 1-467) (enzyme) | binds | –
2 | tumor progression locus 2 (TPL2) (from UniProt P41279 1-467) (enzyme) | binds | no binding
